In article PMC4274154, “DEAF1 Binds Unmethylated and Variably Spaced CpG Dinucleotide Motifs”:
Weaker means in comparison with the reference protein, sequence or condition of that experiment. Tags and fusion partners may be left off the protein sequences shown.

Molecular target: T1, DEAF1-FLAG (UniProt O75398)
T1 sequence (looked up): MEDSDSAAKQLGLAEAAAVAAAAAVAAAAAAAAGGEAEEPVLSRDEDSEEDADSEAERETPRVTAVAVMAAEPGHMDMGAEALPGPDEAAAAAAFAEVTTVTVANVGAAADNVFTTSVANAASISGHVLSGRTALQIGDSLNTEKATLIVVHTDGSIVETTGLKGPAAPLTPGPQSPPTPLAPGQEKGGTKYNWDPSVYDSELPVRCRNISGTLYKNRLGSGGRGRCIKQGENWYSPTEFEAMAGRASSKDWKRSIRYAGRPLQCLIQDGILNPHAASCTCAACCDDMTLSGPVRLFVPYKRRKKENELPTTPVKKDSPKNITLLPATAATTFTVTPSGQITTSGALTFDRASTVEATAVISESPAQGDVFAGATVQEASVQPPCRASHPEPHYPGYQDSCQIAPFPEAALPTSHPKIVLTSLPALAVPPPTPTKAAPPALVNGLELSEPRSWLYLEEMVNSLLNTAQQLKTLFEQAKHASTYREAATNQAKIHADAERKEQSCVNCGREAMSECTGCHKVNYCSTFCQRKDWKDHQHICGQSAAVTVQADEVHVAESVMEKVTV
Test: EMSA
Details: probe alone, greatly reduced relative to N52-69 and 6con; EMSA: 200 ng DEAF1-FLAG, 30 min at room temperature, 1x EMSA binding buffer (composition and pH not given), 1 ug dA:dT, 5% native polyacrylamide gel; recombinant protein; residues 1-565; protein details: FLAG; label: IR700 at 5' ends

## AGAGTCTCTGAGGGTTTTCCTCGTGCCTG (double strand) [Htr1a mouse#1]
  binding result: binds more weakly
